Measured values published in US9567371B2, “Short beta-defensin-derived peptides” (Yeda Research and Development Co. Ltd., priority 2009, dated 2017).
Part of at least one peptide drawing is inferred or uncertain, most often the ends. Peptide text beside a SMILES is read from it.

What was measured:
[1] = system: MG-63 cells; assay: SDF-1, bFGF and HGF secretion by stromal cells (ELISA of supernatants); assay type: cell-based, human; conditions: 10 μM; for levels of SDF-1 in supernatants: compared with untreated cells
Experimental: (§1) FIGS. 7A-7F. Effect of TL-1, AK-1 and cyclic TL-1 on SDF-1, bFGF and HGF secretion by different stromal cell lines. MS-5, MBA-15 and MG-63 cells were co-cultured with 10 μM TL-1, AK-1 or cyclic TL-1 in the serum free medium for 6 hrs, or without added peptide (UT). Levels of SDF-1 (A-C), bFGF (D) and HGF (E, F) were detected in the collected supernatants by ELISA. Data shown are the mean±SD of 2 separate experiments. *P<0.05 compared to control.
(§2) SDF-1 levels in tested samples were determined by ELISA as described (Kalinkovich, A., et al., 2006) where the K15C monoclonal antibodies (mAb, INRA, Paris, France) recognizing the first three amino acids of SDF-1 were utilized as a capture Ab (10 μg/mL) in order to measure levels of intact, non-cleaved SDF-1. Levels of basic FGF (bFGF) and HGF in tested samples were determined by using corresponding capture mAbs and polyclonal biotynilated Abs (R&D Systems) as recommended by the manufacturer. In order to examine SDF-1, bFGF and HGF levels in cell supernatants, MS-5, MBA-15 and MG-63 cells were seeded in 24-well Costar wells and cultivated in RPMI 1640 or αMEM Eagle medium, respectively, with 10% FCS. When the cells reached confluence, the medium was changed to serum free medium and cells were cultivated for additional 6 hrs in the presence of various concentrations of the peptides. Medium samples were collected and centrifuged 10 min at 6000×g at 4° C. to remove cell debris. Supernatants were collected and kept at −70° C. until tested.
(§3) Because BM stromal cells, such as endosteal bone lining osteoblasts and endothelial cells are the main source of human and murine SDF-1, the capability of the peptides to affect SDF-1 secretion by mouse stromal MS-5 and MBA-15 cells, and human osteoblast MG-63 cells was examined.
(§4) In order to examine the capability of the peptides to induce secretion of other proteins, the levels of Hepatocyte growth factor (HGF) and Basic fibroblast growth factor (bFGF) were detected in the same supernatants.

[2] = system: MBA-15 cells; assay: as above; assay type: cell-based, mouse; conditions: 10 μM; for levels of SDF-1 in supernatants: compared with untreated cells
Experimental: as §1, §2, §3, §4

[3] = system: MS-5 cells; assay: as above; assay type: cell-based, mouse; conditions: 10 μM; for levels of SDF-1 in supernatants: compared with untreated cells
Experimental: as §1, §2, §3, §4

[4] = system: MMP-2; assay: Gelatin zymography of MS-5 cell supernatants; assay type: cell-based, mouse; conditions: MS-5 cells, 10 μM, 6 hrs
[5] = system: G2 cells; assay: Transwell migration towards SDF-1; assay type: cell-based, human
Experimental: FIGS. 8A-8D. Effect of TL-1 and cyclic TL-1 on in vitro and in vivo cell migration. (A, C) Human CD3^+, G2, cord blood CD34^+ and peripheral blood mononuclear (PBMC) cells were preincubated with 1 and 10 μM TL-1 for 3 hrs in serum free medium, washed and allowed to migrate towards SDF-1. Migrated cells were collected and calculated by flow cytometry. Percentage of migrated cells is presented as compared to untreated (UT) control taken as 100%. (B) G2 cells were similarly preincubated with 10 μM TL-1 or cTL-1 for the indicated periods of time and percentage of migrated cells is depicted. (D) Homing assay. G2 cells were similarly preincubated with 10 μM TL-1 or cTL-1 for 3 hrs, washed and i.v. injected (10×10^6/mouse) to non-irradiated NOD/SCID mice. Percentage of G2 cells in the murine BM and spleens was determined by staining with anti-human CD45 Ab and compared with untreated (UT) cells. Data shown are the mean±SD of 2 separate experiments. *P<0.05 compared to control.
FIGS. 9A-9B. AK-1 increases SDF-1-induced migration and chemotaxis of G2 and mouse bone marrow mononuclear cells (BM MNC). (A) G2 cells and mouse BM MNC were preincubated with 1 and 10 μM AK-1 for 3 hrs in serum free medium, washed and allowed to migrate towards SDF-1. Migrated cells were collected and calculated by flow cytometry. Percentage of migrated cells is presented as compared to untreated control taken as 100%. (B) Untreated G2 cells and mouse BM MNC were put to the upper chambers of the transwell plates and allowed to migrate towards 1 and 10 μM AK-1 present the bottom chambers of the transwell plates for 4 hrs. Percentage of migrated cells is presented as compared to untreated (UT) control taken as 100%. […]
Various cells (1×10^6/mL), untreated or pretreated with peptides for 3 hrs at 96-well flat bottom plates at 37° C. were washed, 2×10^5 cells/100 μL were added to the upper chambers of Costar 24-well transwell plates with 5 μm pore filters (Corning Inc., Corning, N.Y.) and allowed to migrate for 2-4 hrs at 37° C. […] Migrated cells were collected from the lower chambers and counted using a flow cytometer. […]

| Compound | HGF secretion into supernatants [1] | bFGF secretion into supernatants [1] | levels of SDF-1 in supernatants [1] | HGF secretion into supernatants [2] | bFGF secretion into supernatants [2] | levels of SDF-1 in supernatants [2] | levels of SDF-1 in supernatants [3] | increase of MMP-2 activity in the supernatants [4] [fold] | SDF-1-induced migration ([5]; 1 and 10 μM, 3 hrs preincubation) | bFGF secretion into supernatants [3] | preincubation time at which inhibitory effect on migration reached a peak ([5]; 10 μM) [h] | SDF-1-induced migration after short preincubation ([5]; 10 μM, 10 min after preincubation) |
| --- | --- | --- | --- | --- | --- | --- | --- | --- | --- | --- | --- | --- |
| N=C(N)NCCC[C@H](NC(=O)CNC(=O)[C@@H](N)CO)C(=O)N[C@@H](CCCCN)C(=O)N[C@@H](CS)C(=O)N[C@@H](CS)C(=O)N[C@@H](CCCNC(=N)N)C(=O)N[C@@H](CCCCN)C(=O)N[C@@H](CCCCN)C(=O)N[C@@H](CCCCN)C(=O)O [AK-1, SGRKCCRKKK] (H-SGRKCCRKKK-OH) | significantly elevated | significantly elevated | significantly elevated | significantly elevated | significantly elevated | significantly elevated | significantly elevated | 1.5 | significantly up-regulated |  |  |  |
| N=C(N)NCCC[C@H](NC(=O)CNC(=O)[C@@H](N)CCCNC(=N)N)C(=O)N[C@@H](CCCCN)C(=O)N[C@@H](CS)C(=O)N[C@@H](CS)C(=O)N[C@@H](CCCNC(=N)N)C(=O)N[C@@H](CCCNC(=N)N)C(=O)N[C@@H](CCCCN)C(=O)N[C@@H](CCCCN)C(=O)O [TL-1, RGRKCCRRKK] (H-RGRKCCRRKK-OH) | not from MG-63 cells |  | significantly elevated | induced elevation |  | significantly elevated | significantly elevated | 2.2 |  | did not induce elevation | 3 | Significant inhibitory effect |
